The test has as its target GPR15/Bob (human) (UniProt P49685). As to the kind of experiment: immunoprecipitation of gp120 that had been allowed to bind cells.

The chains behind the UniProt entries cited, without tags or fusion partners. Where a name states a change or a piece, a line headed by the entry shows the natural chain unless it says otherwise.
UniProt P49685: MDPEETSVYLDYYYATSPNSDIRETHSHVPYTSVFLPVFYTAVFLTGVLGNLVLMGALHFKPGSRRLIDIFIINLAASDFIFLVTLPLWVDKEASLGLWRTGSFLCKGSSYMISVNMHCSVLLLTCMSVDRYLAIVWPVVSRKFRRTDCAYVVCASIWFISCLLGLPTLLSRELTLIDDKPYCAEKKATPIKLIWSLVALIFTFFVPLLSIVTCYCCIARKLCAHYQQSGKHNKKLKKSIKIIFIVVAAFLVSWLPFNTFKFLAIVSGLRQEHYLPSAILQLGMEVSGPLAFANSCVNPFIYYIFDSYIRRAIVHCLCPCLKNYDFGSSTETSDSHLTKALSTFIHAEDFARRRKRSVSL

Experimental findings from patent US20050042747A1, “Hivgp120-induced bob/gpr15 activation” (priority 2001, published 2005) are described below.

Results are given in words; binding and its absence hold for the method and conditions named. Some results given as binding are weak or reduced against the parent protein; the word gives no strength.

Regarding “gp120IIIB (from UniProt P03375 33-511) (ligand)”, the binding entry is “binds”.
